From article PMC10921666
Like-named read-outs stand apart in the source and are kept apart here. These are yes or no findings as the source states them, for the method shown. In cells and extracts the contact can be indirect. Some binding calls cover weakened binding; strength is not graded here. For some assays here: Sequences can lack the tags named with a protein.

By UniProt entry, the sequences of proteins in these tests, tags left out. Residues count along the entry.
UniProt Q9NZQ7, residues 19-290: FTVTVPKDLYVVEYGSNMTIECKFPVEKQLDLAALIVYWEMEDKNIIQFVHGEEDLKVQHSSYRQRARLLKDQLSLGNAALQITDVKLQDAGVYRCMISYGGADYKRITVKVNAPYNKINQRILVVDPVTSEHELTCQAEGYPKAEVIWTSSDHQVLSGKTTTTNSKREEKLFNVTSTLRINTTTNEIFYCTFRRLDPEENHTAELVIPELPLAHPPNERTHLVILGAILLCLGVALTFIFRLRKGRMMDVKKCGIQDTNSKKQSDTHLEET
UniProt O43791: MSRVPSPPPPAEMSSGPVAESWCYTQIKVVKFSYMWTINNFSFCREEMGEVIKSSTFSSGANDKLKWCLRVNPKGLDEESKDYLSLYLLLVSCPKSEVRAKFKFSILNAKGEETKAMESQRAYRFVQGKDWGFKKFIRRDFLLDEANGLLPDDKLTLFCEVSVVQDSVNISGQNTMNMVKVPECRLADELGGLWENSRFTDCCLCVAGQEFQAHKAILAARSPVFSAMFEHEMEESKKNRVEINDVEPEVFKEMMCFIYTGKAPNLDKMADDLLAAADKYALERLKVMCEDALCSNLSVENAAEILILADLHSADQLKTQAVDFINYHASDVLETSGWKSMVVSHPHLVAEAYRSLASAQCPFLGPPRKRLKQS

Legend:
[1] = target: T1, Myc-TMEM160 (UniProt Q9NX00); test: co-IP; exogenous Myc-TMEM160 and Flag-PD-L1 in HEK-293T and SW480 cells; Protein A/G immunoprecipitation kit, western blot
T1 sequence: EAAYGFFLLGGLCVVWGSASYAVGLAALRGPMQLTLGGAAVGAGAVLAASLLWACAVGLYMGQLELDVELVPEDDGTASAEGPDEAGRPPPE

[2] = target: T2, TMEM160 (endogenous) (human (endogenous in DLD1 and HCT116)) (UniProt Q9NX00); test: co-IP; endogenous proteins in DLD1 and HCT116 cells; Protein A/G immunoprecipitation kit, western blot
T2 sequence: T1 sequence

[3] = target: PD-L1 (competition co-IP in DLD1 and SW480 cells) (UniProt Q9NZQ7); test: co-IP; co-IP of SPOP and PD-L1 in DLD1 and SW480 cells with TMEM160 overexpressed
[4] = target: PD-L1 (competition co-IP in DLD1 and SW480 cells) (UniProt Q9NZQ7); test: as above; remark: listed apart in the source

With Flag-PD-L1 (from UniProt Q9NZQ7 19-290) the binding [1] was “binds”.

With “PD-L1 (endogenous) (from UniProt Q9NZQ7 19-290)” the binding [2] was “binds”.

With “SPOP (competition co-IP in DLD1 and SW480 cells) (from UniProt O43791 1-374)” the binding [3] was “binds”.

For “SPOP (endogenous) (from UniProt O43791 1-374)”, the binding [2] was “binds”.

B1: Myc-TMEM160 (protein, UniProt Q9NX00 97-188)
chain: T1 sequence
In the case of B1, the binding [4] is reported as “binds”.
